This passage reports binding results from paper PMC10756122.

Sequences of proteins named here, by UniProt entry; tags and fusion partners are left off. A change or cut given only in a name is not applied to a line headed by its entry. Residues count along the entry.
UniProt O60911: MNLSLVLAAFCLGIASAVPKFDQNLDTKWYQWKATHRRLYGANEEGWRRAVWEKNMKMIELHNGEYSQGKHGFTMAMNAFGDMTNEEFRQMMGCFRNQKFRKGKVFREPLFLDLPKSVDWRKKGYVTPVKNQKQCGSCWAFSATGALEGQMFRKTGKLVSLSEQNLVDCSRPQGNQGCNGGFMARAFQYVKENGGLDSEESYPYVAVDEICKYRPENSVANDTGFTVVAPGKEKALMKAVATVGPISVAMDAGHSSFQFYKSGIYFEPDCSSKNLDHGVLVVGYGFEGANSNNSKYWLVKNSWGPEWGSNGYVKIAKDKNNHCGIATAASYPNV
UniProt P02751, residues 32-2477: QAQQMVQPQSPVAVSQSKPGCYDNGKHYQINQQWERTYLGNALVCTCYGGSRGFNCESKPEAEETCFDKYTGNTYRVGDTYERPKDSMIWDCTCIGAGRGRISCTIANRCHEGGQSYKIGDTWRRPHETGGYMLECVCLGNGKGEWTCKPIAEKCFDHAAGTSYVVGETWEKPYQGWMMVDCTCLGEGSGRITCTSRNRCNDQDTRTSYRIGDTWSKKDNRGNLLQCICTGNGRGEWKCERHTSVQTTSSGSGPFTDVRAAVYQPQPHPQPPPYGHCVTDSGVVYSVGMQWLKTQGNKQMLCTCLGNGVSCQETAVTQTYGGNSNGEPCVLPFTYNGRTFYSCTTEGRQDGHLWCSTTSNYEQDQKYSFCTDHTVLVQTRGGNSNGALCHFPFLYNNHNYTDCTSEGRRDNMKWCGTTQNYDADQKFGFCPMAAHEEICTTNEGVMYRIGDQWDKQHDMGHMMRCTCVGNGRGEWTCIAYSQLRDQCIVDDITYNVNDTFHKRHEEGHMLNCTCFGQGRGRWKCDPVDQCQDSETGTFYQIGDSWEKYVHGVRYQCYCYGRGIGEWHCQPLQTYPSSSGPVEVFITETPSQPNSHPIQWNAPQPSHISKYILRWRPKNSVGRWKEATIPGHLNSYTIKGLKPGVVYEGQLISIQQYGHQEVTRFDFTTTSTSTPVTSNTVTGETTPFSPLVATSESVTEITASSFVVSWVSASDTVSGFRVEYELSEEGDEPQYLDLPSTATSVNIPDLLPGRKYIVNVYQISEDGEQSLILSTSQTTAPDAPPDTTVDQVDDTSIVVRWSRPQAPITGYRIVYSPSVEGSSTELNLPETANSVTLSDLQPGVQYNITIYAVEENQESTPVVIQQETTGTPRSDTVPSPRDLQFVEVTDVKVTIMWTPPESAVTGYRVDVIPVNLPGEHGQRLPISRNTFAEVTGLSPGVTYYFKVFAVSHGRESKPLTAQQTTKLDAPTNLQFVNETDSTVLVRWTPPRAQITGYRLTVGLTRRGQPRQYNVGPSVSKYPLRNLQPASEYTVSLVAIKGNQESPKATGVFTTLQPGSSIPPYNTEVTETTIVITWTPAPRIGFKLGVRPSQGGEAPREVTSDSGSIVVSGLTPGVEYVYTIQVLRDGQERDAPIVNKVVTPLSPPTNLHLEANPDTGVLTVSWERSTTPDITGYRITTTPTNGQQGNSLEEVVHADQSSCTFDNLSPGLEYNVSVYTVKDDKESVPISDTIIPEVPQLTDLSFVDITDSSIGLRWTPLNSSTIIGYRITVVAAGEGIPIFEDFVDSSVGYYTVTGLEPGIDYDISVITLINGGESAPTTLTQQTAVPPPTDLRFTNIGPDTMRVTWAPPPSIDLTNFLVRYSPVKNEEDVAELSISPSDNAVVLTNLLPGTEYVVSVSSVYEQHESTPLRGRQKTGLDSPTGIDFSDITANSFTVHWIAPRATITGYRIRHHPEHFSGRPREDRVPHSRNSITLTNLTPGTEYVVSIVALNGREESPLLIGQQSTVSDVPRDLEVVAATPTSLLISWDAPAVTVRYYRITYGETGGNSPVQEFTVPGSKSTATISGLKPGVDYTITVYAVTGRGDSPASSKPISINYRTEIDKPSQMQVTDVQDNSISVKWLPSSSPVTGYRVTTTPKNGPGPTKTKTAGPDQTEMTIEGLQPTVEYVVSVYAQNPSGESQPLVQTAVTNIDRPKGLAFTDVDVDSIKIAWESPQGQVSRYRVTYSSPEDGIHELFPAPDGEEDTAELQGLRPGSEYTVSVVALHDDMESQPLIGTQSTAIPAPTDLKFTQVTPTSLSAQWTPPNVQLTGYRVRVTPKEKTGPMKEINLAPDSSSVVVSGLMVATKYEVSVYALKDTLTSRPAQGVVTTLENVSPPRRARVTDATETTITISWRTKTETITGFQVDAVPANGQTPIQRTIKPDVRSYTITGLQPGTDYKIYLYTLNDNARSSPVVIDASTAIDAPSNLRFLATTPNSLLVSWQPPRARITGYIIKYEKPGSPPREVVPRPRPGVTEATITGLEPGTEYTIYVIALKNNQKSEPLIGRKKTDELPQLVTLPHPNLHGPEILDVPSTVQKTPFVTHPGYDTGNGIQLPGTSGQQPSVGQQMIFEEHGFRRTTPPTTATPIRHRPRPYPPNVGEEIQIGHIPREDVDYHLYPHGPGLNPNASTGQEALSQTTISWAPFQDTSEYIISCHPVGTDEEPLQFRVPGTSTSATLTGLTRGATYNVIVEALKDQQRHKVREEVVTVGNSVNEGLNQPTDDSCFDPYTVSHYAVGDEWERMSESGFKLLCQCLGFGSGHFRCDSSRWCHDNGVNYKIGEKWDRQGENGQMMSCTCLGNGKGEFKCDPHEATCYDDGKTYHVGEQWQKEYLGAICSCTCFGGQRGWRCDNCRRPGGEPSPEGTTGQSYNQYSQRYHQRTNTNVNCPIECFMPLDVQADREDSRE
UniProt P12830: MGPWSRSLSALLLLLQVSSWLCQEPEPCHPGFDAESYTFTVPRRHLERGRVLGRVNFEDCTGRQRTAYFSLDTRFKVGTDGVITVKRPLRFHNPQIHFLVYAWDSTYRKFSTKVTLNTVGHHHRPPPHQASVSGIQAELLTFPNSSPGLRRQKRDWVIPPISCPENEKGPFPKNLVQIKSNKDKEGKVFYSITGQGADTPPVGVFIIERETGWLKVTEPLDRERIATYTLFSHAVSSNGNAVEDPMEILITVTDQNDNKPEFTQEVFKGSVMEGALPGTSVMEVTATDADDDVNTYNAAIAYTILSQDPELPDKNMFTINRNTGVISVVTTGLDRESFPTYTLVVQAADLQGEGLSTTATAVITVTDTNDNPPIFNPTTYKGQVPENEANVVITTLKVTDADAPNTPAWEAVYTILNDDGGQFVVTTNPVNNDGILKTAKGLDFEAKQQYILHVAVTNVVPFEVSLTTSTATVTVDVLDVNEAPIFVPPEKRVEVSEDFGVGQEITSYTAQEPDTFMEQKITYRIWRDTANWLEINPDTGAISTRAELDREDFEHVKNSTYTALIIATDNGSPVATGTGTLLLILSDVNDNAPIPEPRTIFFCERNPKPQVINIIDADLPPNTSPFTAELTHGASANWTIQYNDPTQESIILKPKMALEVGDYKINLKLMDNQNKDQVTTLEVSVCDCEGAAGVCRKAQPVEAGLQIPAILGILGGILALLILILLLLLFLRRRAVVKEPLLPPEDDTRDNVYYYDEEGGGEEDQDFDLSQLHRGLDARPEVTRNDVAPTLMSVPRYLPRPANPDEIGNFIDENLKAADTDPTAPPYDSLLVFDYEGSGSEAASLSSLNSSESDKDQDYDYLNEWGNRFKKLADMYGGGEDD

This test concerns the target Flag-tagged CTSV (Cathepsin V) (human) (UniProt O60911). Kind of test: affinity purification with mass spectrometry; lysates of A549 and NCI-H1975 cells transfected with Flag-tagged CTSV; Flag-conjugated beads, 4°C, 8 h; beads washed 5 times; SDS-PAGE and mass spectrometry.

These are yes or no findings as the source states them, for the method shown. In cells and extracts the contact can be indirect. Here binding means that the protein was enriched with, or labelled near, the bait; the list need not be complete.

For “fibronectin, endogenous (from UniProt P02751 32-2477)”, the binding entry is given as “binds”.

For “E-cadherin, endogenous (from UniProt P12830)”, the binding result is on record as “binds”.
